Experimental data reported in doi:10.1101/230706.
No constants are given. Whether binding was seen depends on the method and setting. In cells and extracts the contact can be indirect. A yes stands for co-enrichment or nearness to the bait. Other partners may have been found.

Protein sequences, listed by entry. Tags and fused reporters are not part of them. Lines headed by an entry give the natural chain unless they say otherwise; changes in a name come on top. Chains listed by the source or under a name are the forms on record and can include a tag or linker.
GFP-fused 53BP1 containing amino acids 1-34 and 1220-1711 (Q12888, form named): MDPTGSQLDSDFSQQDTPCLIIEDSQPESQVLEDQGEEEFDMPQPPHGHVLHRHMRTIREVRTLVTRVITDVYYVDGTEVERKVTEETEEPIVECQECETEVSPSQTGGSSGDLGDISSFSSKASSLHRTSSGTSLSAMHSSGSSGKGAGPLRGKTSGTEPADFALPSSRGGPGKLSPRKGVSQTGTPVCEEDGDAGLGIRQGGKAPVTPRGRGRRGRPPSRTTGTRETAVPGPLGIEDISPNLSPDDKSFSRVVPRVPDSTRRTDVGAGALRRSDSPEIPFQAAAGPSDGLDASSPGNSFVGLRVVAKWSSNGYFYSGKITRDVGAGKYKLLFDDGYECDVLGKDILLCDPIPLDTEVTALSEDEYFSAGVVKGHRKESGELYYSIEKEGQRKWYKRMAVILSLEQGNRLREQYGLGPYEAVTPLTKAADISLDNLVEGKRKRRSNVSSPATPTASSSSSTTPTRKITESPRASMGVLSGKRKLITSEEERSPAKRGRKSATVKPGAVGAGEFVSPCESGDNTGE
UniProt Q14980: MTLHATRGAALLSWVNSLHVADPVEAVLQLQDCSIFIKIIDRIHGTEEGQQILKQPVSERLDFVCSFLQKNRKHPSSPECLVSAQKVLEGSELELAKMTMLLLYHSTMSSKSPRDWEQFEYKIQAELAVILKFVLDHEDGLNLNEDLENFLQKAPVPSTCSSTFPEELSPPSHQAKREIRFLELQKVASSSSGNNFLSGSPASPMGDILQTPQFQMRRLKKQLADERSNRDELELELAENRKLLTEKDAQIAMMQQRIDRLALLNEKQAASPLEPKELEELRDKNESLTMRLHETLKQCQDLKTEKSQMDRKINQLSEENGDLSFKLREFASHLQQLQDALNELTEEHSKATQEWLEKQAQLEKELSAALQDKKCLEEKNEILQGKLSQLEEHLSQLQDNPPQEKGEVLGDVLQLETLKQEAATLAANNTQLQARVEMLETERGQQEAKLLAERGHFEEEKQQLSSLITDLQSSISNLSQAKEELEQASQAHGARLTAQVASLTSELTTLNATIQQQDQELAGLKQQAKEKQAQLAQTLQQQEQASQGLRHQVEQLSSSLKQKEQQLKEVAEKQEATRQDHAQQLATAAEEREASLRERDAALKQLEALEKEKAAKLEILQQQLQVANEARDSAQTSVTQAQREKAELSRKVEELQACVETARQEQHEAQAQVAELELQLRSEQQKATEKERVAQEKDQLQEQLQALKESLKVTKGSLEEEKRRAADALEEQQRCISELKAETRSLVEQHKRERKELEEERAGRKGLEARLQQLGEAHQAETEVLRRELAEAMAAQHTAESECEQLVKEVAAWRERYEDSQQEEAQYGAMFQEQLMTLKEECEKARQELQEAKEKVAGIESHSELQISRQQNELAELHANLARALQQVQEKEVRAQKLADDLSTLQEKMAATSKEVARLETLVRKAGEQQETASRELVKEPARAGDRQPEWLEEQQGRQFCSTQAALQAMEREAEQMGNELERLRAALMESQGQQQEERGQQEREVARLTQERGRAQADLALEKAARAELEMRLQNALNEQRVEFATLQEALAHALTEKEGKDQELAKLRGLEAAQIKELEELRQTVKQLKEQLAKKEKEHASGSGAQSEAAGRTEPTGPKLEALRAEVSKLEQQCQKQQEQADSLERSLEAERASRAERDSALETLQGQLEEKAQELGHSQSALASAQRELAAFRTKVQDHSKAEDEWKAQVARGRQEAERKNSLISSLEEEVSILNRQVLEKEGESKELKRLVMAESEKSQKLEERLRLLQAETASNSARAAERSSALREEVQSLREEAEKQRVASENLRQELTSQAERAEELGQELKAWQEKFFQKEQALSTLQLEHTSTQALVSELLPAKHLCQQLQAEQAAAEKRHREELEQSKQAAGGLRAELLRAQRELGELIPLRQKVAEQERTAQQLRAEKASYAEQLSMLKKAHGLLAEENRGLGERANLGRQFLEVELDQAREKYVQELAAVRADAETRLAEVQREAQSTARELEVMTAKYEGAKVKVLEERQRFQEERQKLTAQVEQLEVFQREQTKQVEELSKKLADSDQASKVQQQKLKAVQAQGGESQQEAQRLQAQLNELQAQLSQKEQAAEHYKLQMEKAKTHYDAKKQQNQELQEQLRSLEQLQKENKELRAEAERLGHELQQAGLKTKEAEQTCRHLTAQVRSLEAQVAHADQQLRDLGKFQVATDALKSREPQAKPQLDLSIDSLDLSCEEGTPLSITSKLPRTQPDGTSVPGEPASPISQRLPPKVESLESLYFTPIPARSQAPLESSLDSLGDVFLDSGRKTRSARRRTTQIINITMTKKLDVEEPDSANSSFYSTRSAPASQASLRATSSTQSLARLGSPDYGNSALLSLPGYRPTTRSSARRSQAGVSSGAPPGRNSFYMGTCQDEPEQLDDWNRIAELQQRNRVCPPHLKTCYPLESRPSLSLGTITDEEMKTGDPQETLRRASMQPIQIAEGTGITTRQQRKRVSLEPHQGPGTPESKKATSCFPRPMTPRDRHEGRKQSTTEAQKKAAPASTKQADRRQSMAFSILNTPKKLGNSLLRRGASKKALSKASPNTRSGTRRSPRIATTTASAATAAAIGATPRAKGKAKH

Molecular target: GFP-fused 53BP1 containing amino acids 1-34 and 1220-1711 (UniProt Q12888)
Assay: affinity purification with mass spectrometry

Q: Which binding does the source give for “endogenous nuclear mitotic apparatus protein (NuMA) (from UniProt Q14980 1-2115)” here?
A: Its binding is “binds”.
